The list shows a part of the results.
Tests used:
Assay in all cases: log2 fold change, soluble protein after heating vs DMSO (PISA); higher = thermal stabilisation; K562 cells, 10 uM, 30 min; active = over 0.2 and 3.5 SD of the protein, either way, in both replicates (recomputed)
[1] = compound: CS(=O)(=O)c1ccc(-c2cnc(N)c(C(=O)Nc3ccccc3)n2)cc1
Summary of the method: (§1)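 For each measurement, 10 μM compound was applied for 30 min to K562 cells at 2×10^6 cells/mL. Aliquots were heated for 3 min across 48°C-58°C, pooled, and extracted in PBS with 0.5% NP-40 at 4°C; the supernatant after 21,000xg for 90 min was soluble protein. This was quantified by TMTpro 16plex LC-MS/MS with channel sums equalised, and thermal stability was reported relative to control samples from duplicates, on a log2 fold-change scale.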

By UniProt entry, the sequences of proteins in these tests, tags left out. Where a name states a change or a piece, a line headed by the entry shows the natural chain unless it says otherwise.
UniProt Q15031: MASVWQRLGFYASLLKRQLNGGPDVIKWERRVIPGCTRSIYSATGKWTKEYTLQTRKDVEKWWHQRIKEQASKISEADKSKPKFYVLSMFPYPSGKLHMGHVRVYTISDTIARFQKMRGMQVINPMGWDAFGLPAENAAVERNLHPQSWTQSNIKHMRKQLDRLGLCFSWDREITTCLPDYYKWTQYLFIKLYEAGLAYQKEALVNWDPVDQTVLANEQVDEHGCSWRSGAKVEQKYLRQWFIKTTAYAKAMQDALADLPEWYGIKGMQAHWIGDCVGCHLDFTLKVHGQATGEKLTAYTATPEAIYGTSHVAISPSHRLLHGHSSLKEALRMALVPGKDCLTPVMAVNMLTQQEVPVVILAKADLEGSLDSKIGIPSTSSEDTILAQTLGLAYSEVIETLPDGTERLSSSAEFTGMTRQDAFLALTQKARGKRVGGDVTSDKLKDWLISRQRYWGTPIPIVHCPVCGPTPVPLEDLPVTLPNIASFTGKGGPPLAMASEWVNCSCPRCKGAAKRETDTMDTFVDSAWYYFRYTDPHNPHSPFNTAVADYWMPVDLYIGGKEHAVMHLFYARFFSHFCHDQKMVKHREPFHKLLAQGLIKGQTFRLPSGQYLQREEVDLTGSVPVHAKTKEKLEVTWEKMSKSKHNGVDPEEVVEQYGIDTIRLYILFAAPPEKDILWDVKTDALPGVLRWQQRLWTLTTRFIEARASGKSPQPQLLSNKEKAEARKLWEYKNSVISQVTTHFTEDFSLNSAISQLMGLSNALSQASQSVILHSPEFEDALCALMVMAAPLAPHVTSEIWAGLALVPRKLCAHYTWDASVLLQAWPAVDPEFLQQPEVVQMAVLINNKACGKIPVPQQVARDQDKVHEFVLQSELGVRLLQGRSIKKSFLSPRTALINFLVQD
UniProt P13796: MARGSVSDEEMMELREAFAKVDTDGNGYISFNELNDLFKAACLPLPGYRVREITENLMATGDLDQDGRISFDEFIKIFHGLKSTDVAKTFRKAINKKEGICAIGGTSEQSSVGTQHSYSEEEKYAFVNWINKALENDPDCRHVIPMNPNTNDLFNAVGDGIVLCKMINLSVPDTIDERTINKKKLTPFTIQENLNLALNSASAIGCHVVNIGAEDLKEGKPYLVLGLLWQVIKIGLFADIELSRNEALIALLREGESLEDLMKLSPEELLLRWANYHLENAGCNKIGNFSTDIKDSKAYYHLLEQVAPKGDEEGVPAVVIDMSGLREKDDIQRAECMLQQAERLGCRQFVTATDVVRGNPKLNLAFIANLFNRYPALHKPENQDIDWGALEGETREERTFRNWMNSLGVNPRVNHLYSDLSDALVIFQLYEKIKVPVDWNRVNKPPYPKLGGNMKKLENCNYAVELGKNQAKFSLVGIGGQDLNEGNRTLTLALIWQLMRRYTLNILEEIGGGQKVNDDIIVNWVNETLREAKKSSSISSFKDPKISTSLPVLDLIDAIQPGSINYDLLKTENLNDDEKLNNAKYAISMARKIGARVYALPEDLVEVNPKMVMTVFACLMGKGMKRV
UniProt Q16773: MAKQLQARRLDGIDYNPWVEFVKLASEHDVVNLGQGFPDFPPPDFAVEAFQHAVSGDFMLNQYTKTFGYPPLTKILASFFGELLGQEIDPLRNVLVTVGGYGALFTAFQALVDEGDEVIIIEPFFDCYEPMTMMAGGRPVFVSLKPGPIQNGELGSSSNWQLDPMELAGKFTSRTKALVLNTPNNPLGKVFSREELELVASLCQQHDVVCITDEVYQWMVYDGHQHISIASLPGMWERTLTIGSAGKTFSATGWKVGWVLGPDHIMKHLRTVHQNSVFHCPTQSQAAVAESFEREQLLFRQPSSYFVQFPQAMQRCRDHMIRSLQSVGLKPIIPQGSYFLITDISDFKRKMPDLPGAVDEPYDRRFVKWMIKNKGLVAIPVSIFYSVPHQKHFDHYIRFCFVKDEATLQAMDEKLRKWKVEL
UniProt P53671: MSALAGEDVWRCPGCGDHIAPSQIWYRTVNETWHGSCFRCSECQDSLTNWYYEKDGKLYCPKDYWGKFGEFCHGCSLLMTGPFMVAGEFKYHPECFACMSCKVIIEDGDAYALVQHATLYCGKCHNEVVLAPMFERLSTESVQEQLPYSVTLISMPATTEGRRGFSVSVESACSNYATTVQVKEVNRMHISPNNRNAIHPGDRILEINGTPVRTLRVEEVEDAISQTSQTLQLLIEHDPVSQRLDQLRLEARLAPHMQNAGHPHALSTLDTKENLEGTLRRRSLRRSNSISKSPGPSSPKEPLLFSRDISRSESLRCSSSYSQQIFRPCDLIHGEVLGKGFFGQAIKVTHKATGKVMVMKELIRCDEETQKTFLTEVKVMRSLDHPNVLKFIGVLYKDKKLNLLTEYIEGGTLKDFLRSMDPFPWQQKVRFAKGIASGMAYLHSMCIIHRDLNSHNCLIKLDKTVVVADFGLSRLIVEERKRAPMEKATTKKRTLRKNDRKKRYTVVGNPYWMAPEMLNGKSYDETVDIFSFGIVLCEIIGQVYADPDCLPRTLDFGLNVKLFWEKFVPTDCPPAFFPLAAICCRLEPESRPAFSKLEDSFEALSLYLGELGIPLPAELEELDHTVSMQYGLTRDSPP
UniProt E9PP15: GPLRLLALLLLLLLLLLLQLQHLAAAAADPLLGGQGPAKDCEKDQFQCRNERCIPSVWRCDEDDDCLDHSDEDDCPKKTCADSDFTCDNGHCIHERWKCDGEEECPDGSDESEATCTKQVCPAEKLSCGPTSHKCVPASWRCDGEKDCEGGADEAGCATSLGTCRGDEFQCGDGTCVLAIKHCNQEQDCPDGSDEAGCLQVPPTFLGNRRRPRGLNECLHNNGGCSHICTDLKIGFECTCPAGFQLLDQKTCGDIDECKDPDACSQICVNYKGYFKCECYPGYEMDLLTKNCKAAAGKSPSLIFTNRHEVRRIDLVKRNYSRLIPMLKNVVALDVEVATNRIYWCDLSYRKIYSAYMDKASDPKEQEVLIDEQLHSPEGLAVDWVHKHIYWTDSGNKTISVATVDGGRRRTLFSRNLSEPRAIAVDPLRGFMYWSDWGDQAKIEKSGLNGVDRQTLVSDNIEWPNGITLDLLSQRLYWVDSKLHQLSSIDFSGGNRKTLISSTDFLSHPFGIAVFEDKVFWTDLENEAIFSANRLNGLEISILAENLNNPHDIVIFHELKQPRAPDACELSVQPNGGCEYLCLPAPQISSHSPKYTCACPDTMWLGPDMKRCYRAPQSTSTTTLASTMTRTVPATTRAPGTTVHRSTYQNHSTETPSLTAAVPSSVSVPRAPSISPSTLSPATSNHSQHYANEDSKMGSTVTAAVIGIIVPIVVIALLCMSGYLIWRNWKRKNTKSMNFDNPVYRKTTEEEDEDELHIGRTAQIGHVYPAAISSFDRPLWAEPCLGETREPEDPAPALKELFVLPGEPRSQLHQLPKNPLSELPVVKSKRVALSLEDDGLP
UniProt Q92539: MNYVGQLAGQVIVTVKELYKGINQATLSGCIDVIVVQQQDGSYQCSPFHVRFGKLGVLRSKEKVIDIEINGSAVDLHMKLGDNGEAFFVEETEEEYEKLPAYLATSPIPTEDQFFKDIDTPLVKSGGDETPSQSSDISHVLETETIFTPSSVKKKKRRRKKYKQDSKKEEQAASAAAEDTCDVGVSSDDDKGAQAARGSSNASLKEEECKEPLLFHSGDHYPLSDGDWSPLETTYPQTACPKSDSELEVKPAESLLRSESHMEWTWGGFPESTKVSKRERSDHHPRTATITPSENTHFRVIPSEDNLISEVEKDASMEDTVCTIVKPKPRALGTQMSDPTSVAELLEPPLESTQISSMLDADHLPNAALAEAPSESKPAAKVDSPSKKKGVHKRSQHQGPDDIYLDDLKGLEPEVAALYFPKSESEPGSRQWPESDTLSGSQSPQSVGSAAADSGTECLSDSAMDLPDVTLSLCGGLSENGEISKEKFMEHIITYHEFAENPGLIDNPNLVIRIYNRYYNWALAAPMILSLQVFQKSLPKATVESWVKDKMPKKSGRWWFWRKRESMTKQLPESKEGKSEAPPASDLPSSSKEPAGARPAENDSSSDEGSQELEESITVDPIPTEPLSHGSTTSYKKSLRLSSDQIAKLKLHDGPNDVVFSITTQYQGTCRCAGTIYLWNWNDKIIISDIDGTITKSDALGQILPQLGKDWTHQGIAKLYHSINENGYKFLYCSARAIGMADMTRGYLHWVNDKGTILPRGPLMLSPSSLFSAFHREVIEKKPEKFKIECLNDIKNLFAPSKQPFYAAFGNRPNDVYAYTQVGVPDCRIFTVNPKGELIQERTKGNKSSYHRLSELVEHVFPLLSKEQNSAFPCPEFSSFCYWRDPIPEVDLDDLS
UniProt Q86UP2: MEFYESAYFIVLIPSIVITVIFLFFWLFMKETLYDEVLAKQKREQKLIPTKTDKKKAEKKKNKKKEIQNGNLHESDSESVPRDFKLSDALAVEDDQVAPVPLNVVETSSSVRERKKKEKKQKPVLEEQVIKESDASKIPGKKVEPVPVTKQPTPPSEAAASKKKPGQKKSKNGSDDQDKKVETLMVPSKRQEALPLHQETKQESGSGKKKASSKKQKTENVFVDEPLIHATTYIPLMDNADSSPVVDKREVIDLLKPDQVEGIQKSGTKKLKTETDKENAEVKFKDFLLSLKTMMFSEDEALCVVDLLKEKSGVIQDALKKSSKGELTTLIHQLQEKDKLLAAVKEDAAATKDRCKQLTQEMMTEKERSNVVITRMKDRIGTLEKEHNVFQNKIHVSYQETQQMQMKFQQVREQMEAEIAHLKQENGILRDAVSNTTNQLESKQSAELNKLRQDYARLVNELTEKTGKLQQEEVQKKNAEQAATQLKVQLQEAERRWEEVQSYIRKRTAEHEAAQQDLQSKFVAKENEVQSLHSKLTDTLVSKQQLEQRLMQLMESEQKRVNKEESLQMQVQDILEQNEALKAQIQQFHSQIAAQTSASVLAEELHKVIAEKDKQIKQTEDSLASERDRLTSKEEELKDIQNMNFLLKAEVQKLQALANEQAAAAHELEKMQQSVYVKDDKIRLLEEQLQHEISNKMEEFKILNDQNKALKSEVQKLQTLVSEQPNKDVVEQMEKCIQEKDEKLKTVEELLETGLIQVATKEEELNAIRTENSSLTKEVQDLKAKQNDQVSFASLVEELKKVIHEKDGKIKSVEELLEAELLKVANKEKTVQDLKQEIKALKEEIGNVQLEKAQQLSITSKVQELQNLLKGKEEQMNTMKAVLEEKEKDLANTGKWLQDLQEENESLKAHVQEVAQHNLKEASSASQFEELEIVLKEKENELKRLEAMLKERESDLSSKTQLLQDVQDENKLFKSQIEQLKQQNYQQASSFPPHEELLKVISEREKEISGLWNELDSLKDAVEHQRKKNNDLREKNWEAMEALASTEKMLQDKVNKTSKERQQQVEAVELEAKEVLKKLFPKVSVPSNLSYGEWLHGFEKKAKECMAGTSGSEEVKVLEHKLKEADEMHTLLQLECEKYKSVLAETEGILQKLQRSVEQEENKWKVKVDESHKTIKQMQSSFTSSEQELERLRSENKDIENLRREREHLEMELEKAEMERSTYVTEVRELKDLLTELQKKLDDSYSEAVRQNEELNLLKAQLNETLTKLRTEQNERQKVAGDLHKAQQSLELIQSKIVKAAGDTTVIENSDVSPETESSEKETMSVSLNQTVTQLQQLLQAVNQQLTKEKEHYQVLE
UniProt Q9BRT6: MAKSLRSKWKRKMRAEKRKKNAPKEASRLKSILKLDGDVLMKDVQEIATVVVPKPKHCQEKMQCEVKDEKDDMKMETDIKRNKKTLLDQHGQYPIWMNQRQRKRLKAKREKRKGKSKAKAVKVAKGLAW
UniProt P02750: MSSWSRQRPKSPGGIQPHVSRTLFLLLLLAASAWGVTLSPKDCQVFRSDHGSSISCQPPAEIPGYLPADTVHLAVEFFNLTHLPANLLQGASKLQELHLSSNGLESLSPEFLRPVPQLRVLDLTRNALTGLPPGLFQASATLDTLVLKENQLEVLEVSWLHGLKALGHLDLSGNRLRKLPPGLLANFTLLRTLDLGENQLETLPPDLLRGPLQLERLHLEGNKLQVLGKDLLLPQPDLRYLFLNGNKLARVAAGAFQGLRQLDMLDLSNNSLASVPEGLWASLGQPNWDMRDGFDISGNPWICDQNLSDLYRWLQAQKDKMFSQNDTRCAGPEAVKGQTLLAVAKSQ
UniProt P25791: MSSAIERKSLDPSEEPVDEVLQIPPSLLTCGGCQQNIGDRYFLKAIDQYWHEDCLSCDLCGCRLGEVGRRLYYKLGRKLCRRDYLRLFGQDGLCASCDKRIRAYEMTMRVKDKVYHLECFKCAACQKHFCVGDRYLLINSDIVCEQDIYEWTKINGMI
UniProt Q6IAA8, whole entry, looked up: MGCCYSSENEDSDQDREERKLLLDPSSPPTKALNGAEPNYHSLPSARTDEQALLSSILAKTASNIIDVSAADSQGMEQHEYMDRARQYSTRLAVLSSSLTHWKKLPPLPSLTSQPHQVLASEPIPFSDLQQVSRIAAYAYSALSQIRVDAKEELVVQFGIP

crizotinib = compound: C[C@@H](Oc1cc(-c2cnn(C3CCNCC3)c2)cnc1N)c1c(Cl)ccc(F)c1Cl [crizotinib]
Summary of the method: as §1

[2] = compound: C[C@@H]1COCCN1C2=NC(=NC(=C2)C3(CC3)S(=O)(=O)C)C4=C5C=CNC5=CC=C4
Summary of the method: as §1

[3] = compound: C[C@H](C1=CC=C(C=C1)C(=O)NC2=C3C=CNC3=NC=C2)N
Summary of the method: as §1

duvelisib = compound: C[C@H](Nc1ncnc2nc[nH]c12)c1cc2cccc(Cl)c2c(=O)n1-c1ccccc1 [duvelisib]
Summary of the method: as §1

gandotinib = compound: Cc1cc(Nc2cc(CN3CCOCC3)c3nc(C)c(Cc4ccc(Cl)cc4F)n3n2)n[nH]1 [gandotinib]
Summary of the method: as §1

tozasertib = compound: Cc1cc(Nc2cc(N3CCN(C)CC3)nc(Sc3ccc(NC(=O)C4CC4)cc3)n2)n[nH]1 [tozasertib]
Summary of the method: as §1

[4] = compound: Cc1cc(SCc2sc(-c3ccc(C(F)(F)F)cc3)nc2C)ccc1OCC(=O)O
Summary of the method: as §1

doramapimod = compound: Cc1ccc(-n2nc(C(C)(C)C)cc2NC(=O)Nc2ccc(OCCN3CCOCC3)c3ccccc23)cc1 [doramapimod]
Summary of the method: as §1

ispinesib = compound: Cc1ccc(C(=O)N(CCCN)[C@@H](c2nc3cc(Cl)ccc3c(=O)n2Cc2ccccc2)C(C)C)cc1 [ispinesib]
Summary of the method: as §1

Target | log2 fold change [1] | log2 fold change (crizotinib) | log2 fold change [2] | log2 fold change [3] | log2 fold change (duvelisib) | log2 fold change (gandotinib) | log2 fold change (tozasertib) | log2 fold change [4] | log2 fold change (doramapimod) | log2 fold change (ispinesib)
LDHB (UniProt P07195) | inactive: 0.034 | inactive: 0.039 | inactive: 0.056 | inactive: -0.052 | inactive: 0.017 | inactive: -0.025 | inactive: -0.039 | inactive: -0.019 | inactive: -0.01 | inactive: -0.03
KYNU (UniProt Q16719) | inactive: -0.005 | inactive: 0.09 | inactive: 0.003 | inactive: 0.029 | inactive: 0.046 | inactive: 0.022 | inactive: -0.096 | inactive: -0.106 | inactive: 0.013 | inactive: -0.011
LCMT1 (UniProt Q9UIC8) | inactive: 0.052 | inactive: -0.021 | inactive: 0.034 | inactive: -0.064 | inactive: 0.018 | inactive: -0.101 | inactive: 0.015 | inactive: -0.006 | inactive: 0.008 | inactive: 0.047
LAMB1 (UniProt P07942) | inactive: 0.034 | inactive: 0.059 | inactive: 0 | inactive: 0.033 | inactive: -0.075 | inactive: 0.01 | inactive: -0.001 | inactive: 0.226 | inactive: 0.027 | inactive: -0.002
LAMTOR3 (UniProt Q9UHA4) | inactive: -0.118 | inactive: -0.091 | inactive: -0.079 | inactive: 0.02 | inactive: -0.04 | inactive: 0.057 | inactive: -0.002 | inactive: 0.003 | inactive: 0.02 | inactive: -0.173
LRRC40 (UniProt Q9H9A6) | inactive: 0.052 | inactive: -0.141 | inactive: 0.104 | inactive: 0.138 | inactive: 0.041 | inactive: -0.095 | inactive: 0.028 | inactive: 0.129 | inactive: 0.032 | inactive: -0.068
LMAN2L isoform 2 (UniProt Q9H0V9) | inactive: 0.075 | inactive: 0.029 | inactive: 0 | inactive: 0.003 | inactive: -0.021 | inactive: -0.017 | inactive: 0 | inactive: 0.01 | inactive: -0.009 | inactive: -0.036
LAS1L (UniProt Q9Y4W2) | inactive: 0.155 | inactive: -0.057 | inactive: -0.161 | inactive: 0.317 | inactive: -0.306 | inactive: 0.161 | inactive: 0.104 | inactive: 0.132 | inactive: 0.28 | inactive: -0.016
LARS2 (UniProt Q15031) | inactive: -0.021 | inactive: 0.013 | inactive: 0.049 | inactive: -0.045 | inactive: -0.004 | inactive: -0.052 | inactive: -0.011 | inactive: -0.001 | inactive: -0.023 | inactive: -0.001
LMNB1 (UniProt P20700) | inactive: -0.01 | inactive: 0.038 | inactive: 0.108 | inactive: -0.172 | – | inactive: -0.03 | – | inactive: -0.022 | inactive: -0.003 | inactive: 0.041
LENG1 (UniProt Q96BZ8) | inactive: -0.037 | inactive: 0.055 | inactive: 0.028 | inactive: 0.007 | inactive: 0.054 | inactive: 0.049 | inactive: -0.06 | inactive: -0.034 | inactive: 0.011 | inactive: -0.011
LEO1 (UniProt Q8WVC0) | inactive: 0.092 | inactive: 0.026 | inactive: -0.202 | inactive: -0.126 | – | inactive: -0.031 | – | inactive: -0.008 | inactive: 0.071 | inactive: 0.052
LCP1 (UniProt P13796) | inactive: 0.008 | inactive: 0.03 | inactive: 0.01 | inactive: -0.047 | inactive: -0.009 | inactive: -0.009 | inactive: -0.014 | inactive: -0.053 | inactive: -0.016 | inactive: 0.04
LIMD1 (UniProt Q9UGP4) | inactive: -0.03 | inactive: 0.005 | inactive: -0.007 | inactive: -0.071 | – | inactive: 0.011 | – | inactive: 0.042 | inactive: -0.01 | inactive: 0.008
LNPEP (UniProt Q9UIQ6) | inactive: 0.028 | inactive: 0.015 | inactive: 0.023 | inactive: -0.053 | – | inactive: 0.028 | – | inactive: -0.008 | inactive: -0.013 | inactive: -0.039
LBR (UniProt Q14739) | inactive: 0.025 | inactive: 0.152 | inactive: 0.016 | inactive: -0.031 | – | active: -0.359 | – | inactive: 0.017 | inactive: -0.02 | inactive: -0.08

Target | log2 fold change [1] | log2 fold change (crizotinib) | log2 fold change [2] | log2 fold change [3] | log2 fold change (duvelisib) | log2 fold change (gandotinib) | log2 fold change (tozasertib) | log2 fold change [4] | log2 fold change (doramapimod) | log2 fold change (ispinesib)
KYAT1 (UniProt Q16773) | inactive: 0.014 | inactive: -0.018 | inactive: -0.013 | inactive: 0.005 | inactive: 0.047 | inactive: -0.063 | inactive: -0.035 | inactive: -0.061 | inactive: -0.008 | inactive: -0.002
LIN28B (UniProt Q6ZN17) | inactive: -0.138 | inactive: 0.003 | inactive: -0.289 | inactive: 0.151 | inactive: -0.088 | inactive: 0.01 | inactive: 0.016 | inactive: -0.046 | inactive: 0.105 | inactive: -0.059
LGALS1 (UniProt P09382) | inactive: -0.044 | inactive: 0.076 | inactive: 0.084 | inactive: -0.091 | inactive: 0.022 | inactive: -0.008 | inactive: 0.038 | inactive: -0.035 | inactive: 0.002 | inactive: 0.037
KYAT3 (UniProt Q6YP21) | inactive: 0.012 | inactive: 0.026 | inactive: 0.01 | inactive: -0.023 | inactive: 0.004 | inactive: 0.018 | inactive: -0.019 | inactive: -0.055 | inactive: -0.016 | inactive: -0.005
LIMK2 isoform 3 (UniProt P53671) | inactive: 0.045 | inactive: 0.111 | inactive: 0.052 | inactive: -0.009 | inactive: 0.159 | inactive: -0.019 | inactive: -0.112 | inactive: -0.072 | inactive: -0.212 | inactive: 0
LRP10 (UniProt Q7Z4F1) | inactive: -0.256 | inactive: -0.14 | inactive: -0.209 | inactive: -0.016 | inactive: -0.129 | – | – | inactive: 0.271 | inactive: -0.019 | inactive: -0.623
LRP8 (UniProt E9PP15) | inactive: 0.09 | inactive: -0.241 | inactive: 0.085 | inactive: -0.072 | inactive: 0.022 | – | inactive: 0.192 | inactive: -0.043 | inactive: 0.047 | inactive: 0.044
LLGL1 (UniProt Q15334) | inactive: -0.122 | inactive: -0.587 | inactive: -0.046 | inactive: 0.018 | inactive: 0.044 | – | inactive: 0.135 | inactive: -0.049 | inactive: 0.032 | –
LPIN2 (UniProt Q92539) | inactive: 0 | inactive: -0.195 | inactive: -0.021 | inactive: 0.111 | inactive: 0.013 | inactive: 0.014 | inactive: -0.098 | inactive: 0.101 | inactive: 0.062 | inactive: 0.003
KTN1 (UniProt Q86UP2) | inactive: -0.016 | inactive: -0.078 | inactive: -0.028 | inactive: 0.122 | – | inactive: -0.047 | – | inactive: 0.097 | inactive: 0.094 | inactive: -0.207
LLPH (UniProt Q9BRT6) | inactive: -0.095 | inactive: -0.034 | inactive: -0.562 | inactive: 0.51 | inactive: -0.405 | inactive: 0.393 | inactive: 0.015 | inactive: -0.071 | inactive: 0.219 | inactive: -0.201
LGALS8 isoform 2 (UniProt O00214) | inactive: -0.002 | inactive: -0.023 | inactive: -0.255 | inactive: 0.323 | – | inactive: -0.144 | – | inactive: 0.204 | inactive: 0.146 | –
LRG1 (UniProt P02750) | inactive: -0.337 | inactive: -0.002 | inactive: 0.308 | inactive: 0.132 | inactive: 0.28 | inactive: 0.068 | inactive: 0.407 | inactive: -0.014 | inactive: 0 | inactive: 0.189
LIMA1 isoform 4 (UniProt Q9UHB6) | inactive: -0.076 | inactive: 0.001 | inactive: -0.04 | inactive: -0.057 | – | inactive: 0.019 | – | inactive: -0.036 | inactive: -0.023 | inactive: 0.185
LMO2 isoform 3 (UniProt P25791) | inactive: -0.009 | inactive: 0.015 | inactive: -0.015 | inactive: 0.028 | inactive: 0.076 | inactive: -0.161 | inactive: 0.023 | inactive: -0.011 | inactive: -0.009 | inactive: -0.01
LAMTOR1 (UniProt Q6IAA8) | inactive: -0.099 | inactive: -0.165 | inactive: -0.167 | inactive: -0.073 | inactive: -0.005 | inactive: 0.091 | inactive: 0.012 | inactive: -0.004 | inactive: 0.039 | inactive: -0.08

Given with tabs: part of the list above.
Target	log2 fold change [1]	log2 fold change (crizotinib)	log2 fold change [2]	log2 fold change [3]	log2 fold change (duvelisib)	log2 fold change (gandotinib)	log2 fold change (tozasertib)	log2 fold change [4]	log2 fold change (doramapimod)	log2 fold change (ispinesib)
LPIN2 (UniProt Q92539)	inactive: 0	inactive: -0.195	inactive: -0.021	inactive: 0.111	inactive: 0.013	inactive: 0.014	inactive: -0.098	inactive: 0.101	inactive: 0.062	inactive: 0.003
LRG1 (UniProt P02750)	inactive: -0.337	inactive: -0.002	inactive: 0.308	inactive: 0.132	inactive: 0.28	inactive: 0.068	inactive: 0.407	inactive: -0.014	inactive: 0	inactive: 0.189

Reference: the supplement of paper PMC10849652
